Source: US20220144957A1 (IMMUNECENT BIOTECHNOLOGY, published 2022)
These are yes or no findings as the source states them, for the method shown. Some results given as binding are weak or reduced against the parent protein; the word gives no strength.

Sequences of proteins named here, by UniProt entry; tags and fusion partners are left off. Residues count along the entry.
UniProt P17181, residues 28-557: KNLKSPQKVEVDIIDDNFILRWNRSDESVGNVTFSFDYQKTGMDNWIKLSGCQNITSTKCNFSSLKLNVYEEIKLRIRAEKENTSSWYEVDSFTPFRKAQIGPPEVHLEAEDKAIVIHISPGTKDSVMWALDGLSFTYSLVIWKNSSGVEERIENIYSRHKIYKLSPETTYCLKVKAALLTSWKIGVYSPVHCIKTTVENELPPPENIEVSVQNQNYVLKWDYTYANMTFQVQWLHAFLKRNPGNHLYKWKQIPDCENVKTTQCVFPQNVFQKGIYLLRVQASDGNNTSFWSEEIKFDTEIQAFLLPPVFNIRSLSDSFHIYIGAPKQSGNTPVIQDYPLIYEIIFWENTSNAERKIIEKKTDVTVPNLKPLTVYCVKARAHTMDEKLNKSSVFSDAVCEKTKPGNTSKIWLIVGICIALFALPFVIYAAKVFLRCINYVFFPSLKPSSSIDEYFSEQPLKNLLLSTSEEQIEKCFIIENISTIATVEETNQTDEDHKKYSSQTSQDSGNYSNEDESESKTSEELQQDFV

Biological target: human IFNAR1, full length (IFNAR1-aa1-557) (human) (UniProt P17181)
Experiment: flow cytometry on cells expressing human IFNAR1, MFI of PE

B1: 7G4 Chimeric (antibody, V domains shown)
VH: QVQLQQPGAELVKPGAPVKLSCKASGYTFTSYWMNWVRQRPGRGLEWIGKIDPSDSETHFNQKFRDKATLTVDKSSTTAYIQLSSLTSEDSAVYYCARGGRISFDYDAALDYWGQGTSVTVSS
VL: DILMTQSSSSFSVSLGDRVTITCKSSEVIYNRLAWFQQKPGNAPRLLISGATTLESGFPSRFSGSGSGKDYTLSITSLQIEDVSTYYCQQYWNKPFTFGSGTKLEVK
- binding: binds
